Measurements taken from publication PMC8513606.

Protein sequences, listed by entry. Tags and fused reporters are not part of them. Lines headed by an entry give the natural chain unless they say otherwise; changes in a name come on top.
UniProt Q61483: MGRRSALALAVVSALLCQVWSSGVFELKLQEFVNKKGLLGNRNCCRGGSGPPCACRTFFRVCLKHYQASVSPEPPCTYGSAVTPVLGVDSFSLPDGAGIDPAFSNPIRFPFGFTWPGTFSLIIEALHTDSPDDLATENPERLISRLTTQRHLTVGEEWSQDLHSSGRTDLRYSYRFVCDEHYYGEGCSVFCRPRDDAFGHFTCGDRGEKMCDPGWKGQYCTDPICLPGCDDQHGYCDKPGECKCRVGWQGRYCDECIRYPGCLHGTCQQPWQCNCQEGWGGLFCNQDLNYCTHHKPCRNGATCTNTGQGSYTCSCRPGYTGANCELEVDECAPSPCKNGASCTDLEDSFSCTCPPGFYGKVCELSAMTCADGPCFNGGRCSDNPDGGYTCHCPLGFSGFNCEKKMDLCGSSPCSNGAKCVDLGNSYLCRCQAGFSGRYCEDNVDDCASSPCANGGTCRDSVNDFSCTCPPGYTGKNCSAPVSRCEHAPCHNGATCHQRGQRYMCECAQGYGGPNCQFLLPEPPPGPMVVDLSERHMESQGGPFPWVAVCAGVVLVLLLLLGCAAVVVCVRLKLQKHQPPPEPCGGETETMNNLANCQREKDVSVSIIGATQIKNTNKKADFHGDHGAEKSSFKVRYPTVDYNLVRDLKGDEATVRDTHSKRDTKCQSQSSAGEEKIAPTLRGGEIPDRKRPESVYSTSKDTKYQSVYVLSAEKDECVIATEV
UniProt P28482: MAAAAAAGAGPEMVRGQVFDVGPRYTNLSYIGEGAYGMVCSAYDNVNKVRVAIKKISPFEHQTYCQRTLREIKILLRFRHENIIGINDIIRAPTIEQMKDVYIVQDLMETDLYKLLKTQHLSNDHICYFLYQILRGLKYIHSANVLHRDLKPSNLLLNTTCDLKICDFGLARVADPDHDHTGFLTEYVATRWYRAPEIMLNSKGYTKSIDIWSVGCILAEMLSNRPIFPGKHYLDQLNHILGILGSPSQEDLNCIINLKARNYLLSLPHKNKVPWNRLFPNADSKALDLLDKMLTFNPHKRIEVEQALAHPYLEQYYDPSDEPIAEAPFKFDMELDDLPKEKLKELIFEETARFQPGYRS
UniProt P62993: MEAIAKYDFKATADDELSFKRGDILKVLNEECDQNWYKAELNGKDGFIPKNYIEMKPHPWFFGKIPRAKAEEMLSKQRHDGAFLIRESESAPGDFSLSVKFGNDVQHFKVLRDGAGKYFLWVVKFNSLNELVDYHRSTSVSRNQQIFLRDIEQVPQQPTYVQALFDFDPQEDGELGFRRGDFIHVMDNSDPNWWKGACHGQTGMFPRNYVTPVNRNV
UniProt Q96QZ7: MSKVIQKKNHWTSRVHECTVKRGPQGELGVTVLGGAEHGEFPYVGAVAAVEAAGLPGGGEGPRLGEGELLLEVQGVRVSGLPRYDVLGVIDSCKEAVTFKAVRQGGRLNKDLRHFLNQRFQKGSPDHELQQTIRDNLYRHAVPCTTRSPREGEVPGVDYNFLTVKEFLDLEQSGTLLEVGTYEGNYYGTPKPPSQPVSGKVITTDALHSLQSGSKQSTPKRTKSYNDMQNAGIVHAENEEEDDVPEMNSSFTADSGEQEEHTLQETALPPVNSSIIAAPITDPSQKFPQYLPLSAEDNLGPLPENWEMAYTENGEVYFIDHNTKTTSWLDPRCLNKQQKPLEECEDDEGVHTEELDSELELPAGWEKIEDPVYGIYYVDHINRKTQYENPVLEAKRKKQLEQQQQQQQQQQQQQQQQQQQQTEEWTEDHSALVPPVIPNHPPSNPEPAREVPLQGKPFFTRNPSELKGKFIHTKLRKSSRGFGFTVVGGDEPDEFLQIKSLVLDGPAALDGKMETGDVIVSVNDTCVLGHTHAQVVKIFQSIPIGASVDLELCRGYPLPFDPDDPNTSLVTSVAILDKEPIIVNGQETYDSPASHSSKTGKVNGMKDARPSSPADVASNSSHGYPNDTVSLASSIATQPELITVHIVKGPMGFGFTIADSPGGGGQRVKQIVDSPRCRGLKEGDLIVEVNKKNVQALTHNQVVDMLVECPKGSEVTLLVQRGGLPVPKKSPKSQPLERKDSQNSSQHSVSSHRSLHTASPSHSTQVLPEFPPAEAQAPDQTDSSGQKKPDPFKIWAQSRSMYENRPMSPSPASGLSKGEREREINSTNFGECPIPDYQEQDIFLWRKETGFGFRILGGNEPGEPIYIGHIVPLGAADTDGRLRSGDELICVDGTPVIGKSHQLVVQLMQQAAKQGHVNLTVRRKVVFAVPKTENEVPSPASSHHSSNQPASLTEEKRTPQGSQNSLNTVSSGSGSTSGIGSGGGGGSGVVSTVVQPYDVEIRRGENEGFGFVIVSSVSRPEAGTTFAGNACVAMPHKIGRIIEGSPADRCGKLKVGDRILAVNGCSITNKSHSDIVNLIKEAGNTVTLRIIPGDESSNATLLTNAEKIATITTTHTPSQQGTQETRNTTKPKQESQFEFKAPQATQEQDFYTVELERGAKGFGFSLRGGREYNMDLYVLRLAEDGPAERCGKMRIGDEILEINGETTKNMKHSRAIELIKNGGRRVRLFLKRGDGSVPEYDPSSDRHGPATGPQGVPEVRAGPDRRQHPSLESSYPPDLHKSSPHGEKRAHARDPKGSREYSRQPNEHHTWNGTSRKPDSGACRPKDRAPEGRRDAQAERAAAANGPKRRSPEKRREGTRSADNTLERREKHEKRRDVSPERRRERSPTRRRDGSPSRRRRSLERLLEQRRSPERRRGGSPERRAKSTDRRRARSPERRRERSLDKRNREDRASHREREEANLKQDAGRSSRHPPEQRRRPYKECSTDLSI
UniProt P27361: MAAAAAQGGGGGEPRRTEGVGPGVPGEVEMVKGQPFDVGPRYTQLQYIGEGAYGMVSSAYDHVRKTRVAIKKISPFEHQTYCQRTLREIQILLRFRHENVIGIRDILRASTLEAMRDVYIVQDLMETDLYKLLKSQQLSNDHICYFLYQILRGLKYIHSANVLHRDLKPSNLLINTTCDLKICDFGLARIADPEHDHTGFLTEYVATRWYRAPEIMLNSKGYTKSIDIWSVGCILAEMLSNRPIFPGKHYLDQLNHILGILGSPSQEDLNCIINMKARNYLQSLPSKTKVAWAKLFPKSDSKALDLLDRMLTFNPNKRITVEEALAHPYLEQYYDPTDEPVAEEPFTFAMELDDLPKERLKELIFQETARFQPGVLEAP
UniProt Q16539: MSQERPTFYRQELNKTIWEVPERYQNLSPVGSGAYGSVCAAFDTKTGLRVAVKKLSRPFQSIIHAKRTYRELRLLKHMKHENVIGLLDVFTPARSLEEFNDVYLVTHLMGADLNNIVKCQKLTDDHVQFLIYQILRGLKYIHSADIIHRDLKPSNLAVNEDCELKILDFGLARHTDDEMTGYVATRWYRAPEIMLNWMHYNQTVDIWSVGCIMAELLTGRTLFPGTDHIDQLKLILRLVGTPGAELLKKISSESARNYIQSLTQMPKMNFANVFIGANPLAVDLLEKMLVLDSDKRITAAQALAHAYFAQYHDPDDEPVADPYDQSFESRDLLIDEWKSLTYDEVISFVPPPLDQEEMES

B1: membrane-associated guanylate kinase, WW and PDZ domain-containing protein 3 (protein, UniProt Q5TCQ9 1-1481)
chain: MSKTLKKKKHWLSKVQECAVSWAGPPGDFGAEIRGGAERGEFPYLGRLREEPGGGTCCVVSGKAPSPGDVLLEVNGTPVSGLTNRDTLAVIRHFREPIRLKTVKPGKVINKDLRHYLSLQFQKGSIDHKLQQVIRDNLYLRTIPCTTRAPRDGEVPGVDYNFISVEQFKALEESGALLESGTYDGNFYGTPKPPAEPSPFQPDPVDQVLFDNEFDAESQRKRTTSVSKMERMDSSLPEEEEDEDKEAINGSGNAENRERHSESSDWMKTVPSYNQTNSSMDFRNYMMRDETLEPLPKNWEMAYTDTGMIYFIDHNTKTTTWLDPRLCKKAKAPEDCEDGELPYGWEKIEDPQYGTYYVDHLNQKTQFENPVEEAKRKKQLGQVEIGSSKPDMEKSHFTRDPSQLKGVLVRASLKKSTMGFGFTIIGGDRPDEFLQVKNVLKDGPAAQDGKIAPGDVIVDINGNCVLGHTHADVVQMFQLVPVNQYVNLTLCRGYPLPDDSEDPVVDIVAATPVINGQSLTKGETCMNPQDFKPGAMVLEQNGKSGHTLTGDGLNGPSDASEQRVSMASSGSSQPELVTIPLIKGPKGFGFAIADSPTGQKVKMILDSQWCQGLQKGDIIKEIYHQNVQNLTHLQVVEVLKQFPVGADVPLLILRGGPPSPTKTAKMKTDKKENAGSLEAINEPIPQPMPFPPSIIRSGSPKLDPSEVYLKSKTLYEDKPPNTKDLDVFLRKQESGFGFRVLGGDGPDQSIYIGAIIPLGAAEKDGRLRAADELMCIDGIPVKGKSHKQVLDLMTTAARNGHVLLTVRRKIFYGEKQPEDDSSQAFISTQNGSPRLNRAEVPARPAPQEPYDVVLQRKENEGFGFVILTSKNKPPPGVIPHKIGRVIEGSPADRCGKLKVGDHISAVNGQSIVELSHDNIVQLIKDAGVTVTLTVIAEEEHHGPPSGTNSARQSPALQHRPMGQSQANHIPGDRSALEGEIGKDVSTSYRHSWSDHKHLAQPDTAVISVVGSRHNQNLGCYPVELERGPRGFGFSLRGGKEYNMGLFILRLAEDGPAIKDGRIHVGDQIVEINGEPTQGITHTRAIELIQAGGNKVLLLLRPGTGLIPDHGDWDINNPSSSNVIYDEQSPLPPSSHFASIFEESHVPVIEESLRVQICEKAEELKDIVPEKKSTLNENQPEIKHQSLLQKNVSKRDPPSSHGHSNKKNLLKVENGVTRRGRSVSPKKPASQHSEEHLDKIPSPLKNNPKRRPRDQSLSPSKGENKSCQVSTRAGSGQDQCRKSRGRSASPKKQQKIEGSKAPSNAEAKLLEGKSRRIAGYTGSNAEQIPDGKEKSDVIRKDAKQNQLEKSRTRSPEKKIKRMVEKSLPSKMTNKTTSKEVSENEKGKKVTTGETSSSNDKIGENVQLSEKRLKQEPEEKVVSNKTEDHKGKELEAADKNKETGRFKPESSSPVKKTLITPGPWKVPSGNKVTGTIGMAEKRQ

target: 3×Flag-tagged mouse Delta like 1 intracellular domain (mouse) (UniProt Q61483); experiment: affinity purification with mass spectrometry; HEK293T cells transfected with 3×Flag-tagged mouse D1ICD or empty vector; IP with anti-Flag M2 resin, elution with 3×Flag peptide, SDS-PAGE, LC-MS/MS; two independent experiments, proteins found in a control IP omitted

binding, binds:
extracellular signal-regulated-kinase 2 (HEK293T) (from UniProt P28482 1-360)
growth factor receptor-bound protein 2 (from UniProt P62993 1-217)
membrane-associated guanylate kinase, WW and PDZ domain-containing protein (MAGI) 1 (from UniProt Q96QZ7 1-1491)
extracellular signal-regulated-kinase (ERK) 1 (HEK293T) (from UniProt P27361 1-379)
mitogen-activated protein kinase 14 (from UniProt Q16539 1-360)
B1

Results are given in words; binding and its absence hold for the method and conditions named. In cells and extracts the contact can be indirect. Here binding means that the protein was enriched with, or labelled near, the bait; the list need not be complete.
